Consider 54 sequences from article PMC7819943, “Rice protein-binding microarrays: a tool to detect cis-acting elements near promoter regions in rice”.

This is one part of the list.

This experiment deals with T1, OsSMF1 (Oryza sativa, UniProt Q6ZLB0 1-436).
T1 sequence: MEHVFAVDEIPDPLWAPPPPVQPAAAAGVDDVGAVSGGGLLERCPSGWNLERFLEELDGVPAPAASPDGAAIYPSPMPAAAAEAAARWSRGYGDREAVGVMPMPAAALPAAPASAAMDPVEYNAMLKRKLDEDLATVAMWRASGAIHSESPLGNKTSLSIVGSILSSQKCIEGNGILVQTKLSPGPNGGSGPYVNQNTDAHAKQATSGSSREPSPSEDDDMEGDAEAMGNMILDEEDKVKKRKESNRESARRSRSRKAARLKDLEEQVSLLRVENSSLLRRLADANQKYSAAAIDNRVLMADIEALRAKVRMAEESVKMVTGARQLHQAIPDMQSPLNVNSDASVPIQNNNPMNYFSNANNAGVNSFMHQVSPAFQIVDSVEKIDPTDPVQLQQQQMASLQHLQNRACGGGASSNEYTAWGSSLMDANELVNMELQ
As to the kind of experiment: protein-binding microarray (RPBM); PBS, 2% BSA, 51.3 ng/ul salmon testes DNA, 50 uM zinc acetate, 200 nM TF, 25 C, 1 h; high values mean tight binding. Particulars: protein: recombinant; tags: N-terminal polyhistidine and DsRed monomer fusion (pET32a); chain copies: 2; label: CyDye5-dUTP incorporated in the synthesized complementary strand; 3' TTTTT single-stranded linker to array surface; dsDNA, one strand shown. In outline: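 Binding signal is reported as fluorescence intensity per feature (arbitrary units) from an Axon 4000B scanner. Incubation used 200 nM of each Ni–NTA-purified, N-terminally polyhistidine- and DsRed-fused transcription factor from E. coli BL21-CodonPlus on a double-stranded custom Agilent array for 1 h at 25 °C, with 50 µM zinc acetate in the buffer, followed by washing.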
As for “GTCACATCATCATGCATTAATAAAATGCCACGTCATCATCCGGAGTCACCTAGTGCAG”, the binding signal is 50000 fluorescence intensity (a.u.).
Regarding “GTGCCTCACGGTCCATAGCCAAGTCATTCTCCACGGCGTCCGGAGTCACCTAGTGCAG”, the binding signal is 4120 fluorescence intensity (a.u.).
For the sequence “AAGATTTGTGTGATACCACATAAGCCTAACTTCTCTCATCCGGAGTCACCTAGTGCAG”, the binding signal is 3330 fluorescence intensity (a.u.).
For “CGTATATCTGATGTGACACGTCCAAATTTTACAGCCCTGGCGGAGTCACCTAGTGCAG” the value was 4740 fluorescence intensity (a.u.).
The value for “CGATGGGCTTAACTCCAGCCGACATGCATATGACAAGTTGCGGAGTCACCTAGTGCAG” was 3920 fluorescence intensity (a.u.); that for “ACTCCACCGTACCAACCGCGGCGCGGCCGATCGATCGACGCGGAGTCACCTAGTGCAG” was 21900 fluorescence intensity (a.u.); that for “AGAGCAATATACACATCAAGCTCTGACTCATCTGTAATGTCGGAGTCACCTAGTGCAG” was 8420 fluorescence intensity (a.u.).
As for “TCCCACATTTAATTCCCCATACATGTGTCCAAACATTTAACGGAGTCACCTAGTGCAG”, the binding signal was 27900 fluorescence intensity (a.u.).
The value for “TTGCTGTGCTGTATGTATGTGTGTGCATGATTTTGTCGTTCGGAGTCACCTAGTGCAG” was 4230 fluorescence intensity (a.u.); that for “TCTTTGGATTTGAAACTTGGCGGTGGTGGATTGAGGCGGTCGGAGTCACCTAGTGCAG” was 25700 fluorescence intensity (a.u.).
For “GCGCACACCAGCGTGGAGAATGACGTAGCTAAAACCTCACCGGAGTCACCTAGTGCAG” the value was 4280 fluorescence intensity (a.u.).
The value for “ACAGATTCCGGCAGCCACCGCGCGCACGCGTGACAACGCCCGGAGTCACCTAGTGCAG” was 3560 fluorescence intensity (a.u.).
Regarding “GTGATTTGTGTAGGTTCTTTGGAATTCTGACTCAAACCTACGGAGTCACCTAGTGCAG”, the binding signal is 3780 fluorescence intensity (a.u.).
The value for “TACTTGGTCTGGTGTACATCATTGGCACTAATACTCCCTTCGGAGTCACCTAGTGCAG” was 3400 fluorescence intensity (a.u.); that for “ATAATCCGAATAAAGATATGGTCATCGTGGCCATTCACAGCGGAGTCACCTAGTGCAG” was 3260 fluorescence intensity (a.u.).
In the case of “CTATGGACACCACCTGCACAATGACCGGATTCTGCACCACCGGAGTCACCTAGTGCAG”, the binding signal is 4570 fluorescence intensity (a.u.).
Take “TCAAACGTCCACGACCGCTTTCCCCGCACGTAGGCCGTTGCGGAGTCACCTAGTGCAG”: the binding signal is 3710 fluorescence intensity (a.u.).
For “GGATTTGCACGAATCCTTACGGTGTGAGTCATACACGGTCCGGAGTCACCTAGTGCAG” the value was 7100 fluorescence intensity (a.u.).
The value for “TTCTTTGGTGGGTGCCACGTAGGAGAAACCCAGCAGGAGTCGGAGTCACCTAGTGCAG” was 12000 fluorescence intensity (a.u.).
Regarding “AATTAATCACATGTTATTACCACCTCGTCTTACGTGAGACCGGAGTCACCTAGTGCAG”, the binding signal is 4300 fluorescence intensity (a.u.).
For “GGGGCAATGATCACAGGCTTCTGCATAGACGTGTTCCAAGCGGAGTCACCTAGTGCAG” the value was 3800 fluorescence intensity (a.u.); for “ACCTGTATTTGTCATTATTTAGTGGACTCTGCTTAGTTCTCGGAGTCACCTAGTGCAG”, 3390 fluorescence intensity (a.u.).
“CGCAGTTGCTTCTGCAAAAGAGATTGATGACAAGGATCACCGGAGTCACCTAGTGCAG”: the binding signal is 3530 fluorescence intensity (a.u.).
As to “CCGTGTAGTCAATTGAGGCCCAGAACACATGGAAGGCGAACGGAGTCACCTAGTGCAG”, the binding signal was 4390 fluorescence intensity (a.u.).
The value for “GCAATGGATGTGTATGATGTAACGCAAGCAACATTCGTTCCGGAGTCACCTAGTGCAG” was 4000 fluorescence intensity (a.u.); that for “TACTTATCCAGATTCAAAAGATAAAATTTATTATATTATACGGAGTCACCTAGTGCAG” was 12600 fluorescence intensity (a.u.); that for “GCCGTCAAGATCATGCCGTGGCGGGTCTACGTCGTGCACACGGAGTCACCTAGTGCAG” was 4170 fluorescence intensity (a.u.).
Take “AGGCACTACATGATATTGGCTATGACACTTGGCTGAACTTCGGAGTCACCTAGTGCAG”: the binding signal was 3320 fluorescence intensity (a.u.).
The value for “CCGTGCGCATCCACCATGGCCTTCTTGTGCGCATCGATCACGGAGTCACCTAGTGCAG” was 3390 fluorescence intensity (a.u.); that for “ACATTCATCATATATACACCTCCTCCTCCTTCTTCCTCTACGGAGTCACCTAGTGCAG” was 3970 fluorescence intensity (a.u.).
For “AGCGGGTGGGGTGTATAGGAGTACAGTTGTAGAGTCACCACGGAGTCACCTAGTGCAG” the value was 4070 fluorescence intensity (a.u.).
For “TTCTGAGCACTCATATGCAAGAAGTCTTGCTCGTTTTGCTCGGAGTCACCTAGTGCAG” the value was 12200 fluorescence intensity (a.u.); for “CGTGAACTACTTGACTCTTCTCTTCATGCGTTTTCTTCAGCGGAGTCACCTAGTGCAG”, 3710 fluorescence intensity (a.u.).
Regarding “TATATCTGATGCTCTCTTGCGTGTCCGTTTGCACTCGAGACGGAGTCACCTAGTGCAG”, the binding signal was 3540 fluorescence intensity (a.u.).
For “ACCTCGTCAGGTTTCCGTTCCGCCTCCGCCTCTGCTGCTCCGGAGTCACCTAGTGCAG” the value was 3930 fluorescence intensity (a.u.); for “GGGGCGAAAGGGATGCTCCAGCGGTGGTGGCGCGTAGCCACGGAGTCACCTAGTGCAG”, 3370 fluorescence intensity (a.u.).
For “ACATGACTCTCTATTATTCCACACAAGATTGACTACATGTCGGAGTCACCTAGTGCAG” the value was 3450 fluorescence intensity (a.u.); for “TATAAATAGCGGCCGTGTCCAGACACGCTAGTCTCACACCCGGAGTCACCTAGTGCAG”, 14100 fluorescence intensity (a.u.).
The value for “CTTTCTTTCTTTCTTTGTGCCCAACTCTGACACGACTCACCGGAGTCACCTAGTGCAG” was 5180 fluorescence intensity (a.u.); that for “ACACAACTTCCACAATTCCCATGCCAAATCATTACTAACGCGGAGTCACCTAGTGCAG” was 4130 fluorescence intensity (a.u.).
Take “GCGCGCCGTCGTCGCTGCGTCACGGGGTGGTGACACGACGCGGAGTCACCTAGTGCAG”: the binding signal was 7030 fluorescence intensity (a.u.).
“CATTAGCTTCTCCAATGCTGAGGATCTGGATCCCTCTCCCCGGAGTCACCTAGTGCAG”: the binding signal is 25800 fluorescence intensity (a.u.).
The value for “TGTAGAGGAAATCGGCAAACACCGCGTGCGCTGGCACAATCGGAGTCACCTAGTGCAG” was 6060 fluorescence intensity (a.u.); that for “TCCTTCCTCTTCTTCGATCTCTCTCTCTCCCCTCAACCATCGGAGTCACCTAGTGCAG” was 3710 fluorescence intensity (a.u.); that for “AGCAGCCTACACTCGCCAACAAAAGTACTACCACCTCACGCGGAGTCACCTAGTGCAG” was 3750 fluorescence intensity (a.u.).
Consider “CTCATAAGTTACCTGTGATCTGTGAAGCTTGAGCTGAAGCCGGAGTCACCTAGTGCAG”, for which the binding signal was 3310 fluorescence intensity (a.u.).
For “CCACCGGGAGCCAATCACGCGCGGCCGCGTGTACACACCCCGGAGTCACCTAGTGCAG” the value was 4520 fluorescence intensity (a.u.).
Take “AAACAGGTAACAATTTATTCTATGTCGGCTTATTATAATCCGGAGTCACCTAGTGCAG”: the binding signal is 30300 fluorescence intensity (a.u.).
For “CAAGGAACGTGGGCTCATCTGACGTGCGCCGTTGCGTGCGCGGAGTCACCTAGTGCAG” the value was 5970 fluorescence intensity (a.u.); for “AGGCCTCCCCACCTTCTATATCACCGTCACCAGTTCACGGCGGAGTCACCTAGTGCAG”, 4460 fluorescence intensity (a.u.); for “GCAATAGTGGGTGACGTCGTCGTGCCAATCTCATTGTTATCGGAGTCACCTAGTGCAG”, 3170 fluorescence intensity (a.u.).
The value for “GCGTTGCATTAAGAGAATGATTTGGTAAATTTTCTTTGACCGGAGTCACCTAGTGCAG” was 15000 fluorescence intensity (a.u.); that for “ACCACCCGAGACGCGACGTGGCGGCGGGCATGCAGCACCCCGGAGTCACCTAGTGCAG” was 5050 fluorescence intensity (a.u.).
As for “GCAAGACCTATTATTCCCTAAAGCATTGTGTGCTTATACTCGGAGTCACCTAGTGCAG”, the binding signal was 3440 fluorescence intensity (a.u.).
